From patent publication US20110162109A1 (BASF PLANT SCIENCE, published 2011)
Results are given in words; binding and its absence hold for the method and conditions named. Some results given as binding are weak or reduced against the parent protein; the word gives no strength. For part of these data: Sequences can lack the tags named with a protein.

T1: HUB1 (Histone Monoubiquitination 1), At2g44950, Arabidopsis thaliana (Arabidopsis thaliana) (UniProt Q8RXD6)
T1 sequence: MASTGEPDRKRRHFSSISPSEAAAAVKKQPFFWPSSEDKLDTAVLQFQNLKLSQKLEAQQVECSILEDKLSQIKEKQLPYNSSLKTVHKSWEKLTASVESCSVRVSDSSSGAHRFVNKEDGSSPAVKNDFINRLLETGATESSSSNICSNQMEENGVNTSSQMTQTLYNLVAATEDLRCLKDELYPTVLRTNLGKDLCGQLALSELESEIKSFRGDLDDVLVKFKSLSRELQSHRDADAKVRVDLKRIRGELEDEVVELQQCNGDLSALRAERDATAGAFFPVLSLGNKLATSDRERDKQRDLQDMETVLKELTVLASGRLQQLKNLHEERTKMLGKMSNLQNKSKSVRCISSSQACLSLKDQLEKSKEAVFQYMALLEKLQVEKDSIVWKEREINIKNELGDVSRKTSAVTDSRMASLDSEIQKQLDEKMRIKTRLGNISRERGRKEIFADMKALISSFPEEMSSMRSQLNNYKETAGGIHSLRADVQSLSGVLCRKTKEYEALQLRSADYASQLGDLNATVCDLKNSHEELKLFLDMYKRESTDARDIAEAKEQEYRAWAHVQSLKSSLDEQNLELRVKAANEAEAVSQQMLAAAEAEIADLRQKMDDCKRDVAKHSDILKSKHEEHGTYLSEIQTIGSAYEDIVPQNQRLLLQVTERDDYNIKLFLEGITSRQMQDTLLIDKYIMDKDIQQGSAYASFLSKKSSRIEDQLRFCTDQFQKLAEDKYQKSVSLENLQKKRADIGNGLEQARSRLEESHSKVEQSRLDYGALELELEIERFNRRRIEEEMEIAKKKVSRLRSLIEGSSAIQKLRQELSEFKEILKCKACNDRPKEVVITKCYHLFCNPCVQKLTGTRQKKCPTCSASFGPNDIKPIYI

T2: HUB2, At1g55250, Arabidopsis thaliana (Arabidopsis thaliana, UniProt Q9C895 1-900)
T2 construct: As prey the endogenous protein of Arabidopsis cell culture; as bait N-terminal GS-TAP fusion; in yeast two-hybrid an AD fusion; also called AAG51572.1
T2 sequence: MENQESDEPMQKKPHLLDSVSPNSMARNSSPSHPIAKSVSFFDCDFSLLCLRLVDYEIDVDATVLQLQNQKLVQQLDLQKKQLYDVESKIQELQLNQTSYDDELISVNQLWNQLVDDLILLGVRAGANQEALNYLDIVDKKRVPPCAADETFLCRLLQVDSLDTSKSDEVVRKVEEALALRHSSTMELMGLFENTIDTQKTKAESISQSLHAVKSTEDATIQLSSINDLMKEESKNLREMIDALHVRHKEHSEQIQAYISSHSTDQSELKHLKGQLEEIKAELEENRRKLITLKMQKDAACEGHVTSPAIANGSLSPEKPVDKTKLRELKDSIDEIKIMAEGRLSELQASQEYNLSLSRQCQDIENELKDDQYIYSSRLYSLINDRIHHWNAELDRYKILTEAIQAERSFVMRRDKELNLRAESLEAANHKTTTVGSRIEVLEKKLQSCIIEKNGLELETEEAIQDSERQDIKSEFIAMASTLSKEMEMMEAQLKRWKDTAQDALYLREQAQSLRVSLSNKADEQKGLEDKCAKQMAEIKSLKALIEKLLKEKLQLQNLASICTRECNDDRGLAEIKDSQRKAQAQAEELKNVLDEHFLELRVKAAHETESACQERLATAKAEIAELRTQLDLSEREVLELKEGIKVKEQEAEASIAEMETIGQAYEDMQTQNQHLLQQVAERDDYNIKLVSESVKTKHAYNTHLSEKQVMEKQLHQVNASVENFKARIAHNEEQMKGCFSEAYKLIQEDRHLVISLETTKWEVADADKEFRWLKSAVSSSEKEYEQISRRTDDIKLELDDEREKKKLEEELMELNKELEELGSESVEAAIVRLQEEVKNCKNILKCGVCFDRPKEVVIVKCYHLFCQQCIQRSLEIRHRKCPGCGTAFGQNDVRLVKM

T3: SEUSS, At1g43850 (Arabidopsis thaliana), Q8W234
T3 chain: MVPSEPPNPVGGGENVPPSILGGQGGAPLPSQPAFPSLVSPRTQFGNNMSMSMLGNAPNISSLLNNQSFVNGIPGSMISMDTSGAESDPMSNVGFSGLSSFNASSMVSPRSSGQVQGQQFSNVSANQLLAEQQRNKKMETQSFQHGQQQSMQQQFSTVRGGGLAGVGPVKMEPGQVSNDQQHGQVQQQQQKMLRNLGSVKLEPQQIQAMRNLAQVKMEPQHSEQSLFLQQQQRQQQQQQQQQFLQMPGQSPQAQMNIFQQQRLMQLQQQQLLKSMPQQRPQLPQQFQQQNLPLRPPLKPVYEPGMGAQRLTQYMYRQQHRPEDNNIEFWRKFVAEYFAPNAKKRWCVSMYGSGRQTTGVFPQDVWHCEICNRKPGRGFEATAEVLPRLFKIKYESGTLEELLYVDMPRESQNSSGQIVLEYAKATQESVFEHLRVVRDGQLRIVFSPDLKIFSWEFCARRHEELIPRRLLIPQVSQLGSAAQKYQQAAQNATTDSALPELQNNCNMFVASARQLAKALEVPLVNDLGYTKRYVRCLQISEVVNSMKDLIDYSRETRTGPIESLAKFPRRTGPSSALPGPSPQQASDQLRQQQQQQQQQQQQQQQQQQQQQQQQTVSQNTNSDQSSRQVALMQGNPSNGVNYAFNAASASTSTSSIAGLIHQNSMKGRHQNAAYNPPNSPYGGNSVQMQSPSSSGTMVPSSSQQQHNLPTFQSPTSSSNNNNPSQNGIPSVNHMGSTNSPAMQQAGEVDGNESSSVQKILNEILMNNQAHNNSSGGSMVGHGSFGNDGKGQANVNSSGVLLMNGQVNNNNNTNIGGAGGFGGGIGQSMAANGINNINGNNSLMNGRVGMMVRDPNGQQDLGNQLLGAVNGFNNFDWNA


How the values were obtained:
[1] = molecular target: T1, HUB1 (Histone Monoubiquitination 1), At2g44950, Arabidopsis thaliana (Arabidopsis thaliana); assay: yeast two-hybrid, pDEST22 HUB1 no RING against pDEST32 HUB1
[2] = molecular target: T2, HUB2, At1g55250, Arabidopsis thaliana; assay: yeast two-hybrid
[3] = molecular target: T3, SEUSS, At1g43850 (Arabidopsis …); assay: yeast two-hybrid; details: remark: other sources report otherwise

Row | Binder | binding [1] | binding [2] | binding [3]
1 | HUB1 no RING (enzyme) MASTGEPDRKRRHFSSISPSEAAAAVKKQPFFWPSSEDKLDTAVLQFQNLKLSQKLEAQQVECSILEDKLSQIKEKQLPYNSSLKTVHKSWEKLTASVESCSVRVSDSSSGAHRFVNKEDGSSPAVKNDFINRLLETGATESSSSNICSNQMEENGVNTSSQMTQTLYNLVAATEDLRCLKDELYPTVLRTNLGKDLCGQLALSELESEIKSFRGDLDDVLVKFKSLSRELQSHRDADAKVRVDLKRIRGELEDEVVELQQCNGDLSALRAERDATAGAFFPVLSLGNKLATSDRERDKQRDLQDMETVLKELTVLASGRLQQLKNLHEERTKMLGKMSNLQNKSKSVRCISSSQACLSLKDQLEKSKEAVFQYMALLEKLQVEKDSIVWKEREINIKNELGDVSRKTSAVTDSRMASLDSEIQKQLDEKMRIKTRLGNISRERGRKEIFADMKALISSFPEEMSSMRSQLNNYKETAGGIHSLRADVQSLSGVLCRKTKEYEALQLRSADYASQLGDLNATVCDLKNSHEELKLFLDMYKRESTDARDIAEAKEQEYRAWAHVQSLKSSLDEQNLELRVKAANEAEAVSQQMLAAAEAEIADLRQKMDDCKRDVAKHSDILKSKHEEHGTYLSEIQTIGSAYEDIVPQNQRLLLQVTERDDYNIKLFLEGITSRQMQDTLLIDKYIMDKDIQQGSAYASFLSKKSSRIEDQLRFCTDQFQKLAEDKYQKSVSLENLQKKRADIGNGLEQARSRLEESHSKVEQSRLDYGALELELEIERFNRRRIEEEMEIAKKKVSRLRSLIEGSSAIQKLRQELSEFKEILK | binds | binds | –
2 | SEUSS, At1g43850 (other, Arabidopsis thaliana, UniProt Q8W234 1-877, looked up, As prey endogenous; as bait N-terminal GS-TAP fusion; in yeast two-hybrid an AD fusion) MVPSEPPNPVGGGENVPPSILGGQGGAPLPSQPAFPSLVSPRTQFGNNMSMSMLGNAPNISSLLNNQSFVNGIPGSMISMDTSGAESDPMSNVGFSGLSSFNASSMVSPRSSGQVQGQQFSNVSANQLLAEQQRNKKMETQSFQHGQQQSMQQQFSTVRGGGLAGVGPVKMEPGQVSNDQQHGQVQQQQQKMLRNLGSVKLEPQQIQAMRNLAQVKMEPQHSEQSLFLQQQQRQQQQQQQQQFLQMPGQSPQAQMNIFQQQRLMQLQQQQLLKSMPQQRPQLPQQFQQQNLPLRPPLKPVYEPGMGAQRLTQYMYRQQHRPEDNNIEFWRKFVAEYFAPNAKKRWCVSMYGSGRQTTGVFPQDVWHCEICNRKPGRGFEATAEVLPRLFKIKYESGTLEELLYVDMPRESQNSSGQIVLEYAKATQESVFEHLRVVRDGQLRIVFSPDLKIFSWEFCARRHEELIPRRLLIPQVSQLGSAAQKYQQAAQNATTDSALPELQNNCNMFVASARQLAKALEVPLVNDLGYTKRYVRCLQISEVVNSMKDLIDYSRETRTGPIESLAKFPRRTGPSSALPGPSPQQASDQLRQQQQQQQQQQQQQQQQQQQQQQQQTVSQNTNSDQSSRQVALMQGNPSNGVNYAFNAASASTSTSSIAGLIHQNSMKGRHQNAAYNPPNSPYGGNSVQMQSPSSSGTMVPSSSQQQHNLPTFQSPTSSSNNNNPSQNGIPSVNHMGSTNSPAMQQAGEVDGNESSSVQKILNEILMNNQAHNNSSGGSMVGHGSFGNDGKGQANVNSSGVLLMNGQVNNNNNTNIGGAGGFGGGIGQSMAANGINNINGNNSLMNGRVGMMVRDPNGQQDLGNQLLGAVNGFNNFDWNA | – | – | binds
